Measurements: paper PMC8024676
Results are given in words; binding and its absence hold for the method and conditions named. In cells and extracts the contact can be indirect. Binding calls can cover weak binding; strength is not graded here. Where a sequence is shown, tags or fusion partners need not be part of it.

Target: Mauve-mCherry (Drosophila melanogaster)
Assay: co-IP; lysate of 0-3 h embryos co-expressing Mv-mCherry and Rab5-EYFP (20 mM Tris-HCl pH 8, 110 mM KCl, 5 mM MgCl2), split and given 100 uM GDP or GppNHp, RFP-Trap-MA beads, 4 °C

binding: binds
B1: Rab5-EYFP (protein, UniProt Q9V3I2 1-219)
chain: MATTPRSGGASGTGTAQRPNGTSQNKSCQFKLVLLGESAVGKSSLVLRFVKGQFHEYQESTIGAAFLTQTICIEDTVVKFEIWDTAGQERYHSLAPMYYRGAQAAIVVYDIQNQDSFQRAKTWVKELHKQASPNIVIALAGNKADLSNIRVVEFDEAKQYAEENGLLFMETSAKTGMNVNDIFLAIAKKLPKNDGANNQGTSIRPTGTETNRPTNNCCK
